Construct, isoform or probe ends are uncertain for at least one entry.

The data set has as its system LcMYB71 (Lonicera caerulea). The data set is described as follows: EMSA. The following applies: 100-, 200-, 400-fold unlabeled probe reduces the shift; LightShift Chemiluminescent EMSA Kit (manufacturer's instructions), 6% native PAGE; pH and temperature not stated; recombinant protein; protein details: N-terminal 6xHis; label: biotin 3'-end. A general note: Mobility shift assays separate free from complexed probe on a gel.

Turning to “CATTTAAAACTCTAACCAAACATATGCGTA (double strand) [P2 (pro2)]”, the binding result is reported as “binds”. As for “GCTATAATATTGTTTGGTTGGGTTTTTAAA (double strand) [P1 (pro1)]”, the binding result is on record as “binds”.

The record behind these values is article PMC10711284.
